# Measured values: the supplement of paper PMC12819154, “High-throughput peptide-centric local stability assay extends protein–ligand identification to membrane proteins, tissues and bacteria” (Nature Structural & Molecular Biology, 2025)
# Chains of the proteins cited; added tags and fusions are not shown. Lines headed by an entry give the natural chain unless they say otherwise; changes in a name come on top.
# UniProt Q9BRA0: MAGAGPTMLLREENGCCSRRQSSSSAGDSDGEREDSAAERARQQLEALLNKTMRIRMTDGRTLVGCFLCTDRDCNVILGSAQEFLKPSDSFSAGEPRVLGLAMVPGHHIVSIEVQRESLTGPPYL
# UniProt Q9BTF0: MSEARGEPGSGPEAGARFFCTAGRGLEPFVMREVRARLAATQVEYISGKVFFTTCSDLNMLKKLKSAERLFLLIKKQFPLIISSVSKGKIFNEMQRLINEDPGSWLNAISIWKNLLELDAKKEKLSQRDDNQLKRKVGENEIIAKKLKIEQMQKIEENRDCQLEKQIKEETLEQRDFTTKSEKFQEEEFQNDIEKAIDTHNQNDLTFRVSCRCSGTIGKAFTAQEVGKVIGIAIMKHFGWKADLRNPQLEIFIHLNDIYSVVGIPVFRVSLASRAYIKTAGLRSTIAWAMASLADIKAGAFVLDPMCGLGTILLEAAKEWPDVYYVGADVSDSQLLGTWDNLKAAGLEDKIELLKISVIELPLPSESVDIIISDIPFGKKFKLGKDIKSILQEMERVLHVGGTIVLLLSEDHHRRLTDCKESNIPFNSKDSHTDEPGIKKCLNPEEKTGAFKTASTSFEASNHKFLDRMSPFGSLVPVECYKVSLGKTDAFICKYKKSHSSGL
# UniProt Q99615: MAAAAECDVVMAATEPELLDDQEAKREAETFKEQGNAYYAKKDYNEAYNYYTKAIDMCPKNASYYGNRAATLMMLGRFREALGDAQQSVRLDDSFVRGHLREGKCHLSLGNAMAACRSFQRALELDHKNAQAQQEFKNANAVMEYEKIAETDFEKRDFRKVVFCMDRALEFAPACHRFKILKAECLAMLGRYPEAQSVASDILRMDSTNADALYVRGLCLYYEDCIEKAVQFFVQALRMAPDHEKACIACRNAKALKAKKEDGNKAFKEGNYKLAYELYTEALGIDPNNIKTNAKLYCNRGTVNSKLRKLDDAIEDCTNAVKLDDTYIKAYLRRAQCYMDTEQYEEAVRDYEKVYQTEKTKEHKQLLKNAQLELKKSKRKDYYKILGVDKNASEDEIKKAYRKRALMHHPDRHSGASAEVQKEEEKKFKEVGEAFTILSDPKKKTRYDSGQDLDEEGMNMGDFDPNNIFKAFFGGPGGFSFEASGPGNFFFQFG
# UniProt Q9BRP4: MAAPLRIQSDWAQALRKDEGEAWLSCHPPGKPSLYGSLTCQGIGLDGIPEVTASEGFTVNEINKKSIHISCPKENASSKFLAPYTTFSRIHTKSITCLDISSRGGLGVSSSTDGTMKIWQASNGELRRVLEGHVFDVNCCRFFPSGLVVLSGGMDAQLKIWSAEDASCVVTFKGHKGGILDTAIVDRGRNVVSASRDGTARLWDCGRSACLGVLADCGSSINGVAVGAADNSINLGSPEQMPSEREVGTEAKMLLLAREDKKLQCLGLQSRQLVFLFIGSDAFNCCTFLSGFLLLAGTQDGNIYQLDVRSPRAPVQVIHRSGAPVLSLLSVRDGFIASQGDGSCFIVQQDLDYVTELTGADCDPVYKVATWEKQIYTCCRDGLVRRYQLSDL
# UniProt Q99676: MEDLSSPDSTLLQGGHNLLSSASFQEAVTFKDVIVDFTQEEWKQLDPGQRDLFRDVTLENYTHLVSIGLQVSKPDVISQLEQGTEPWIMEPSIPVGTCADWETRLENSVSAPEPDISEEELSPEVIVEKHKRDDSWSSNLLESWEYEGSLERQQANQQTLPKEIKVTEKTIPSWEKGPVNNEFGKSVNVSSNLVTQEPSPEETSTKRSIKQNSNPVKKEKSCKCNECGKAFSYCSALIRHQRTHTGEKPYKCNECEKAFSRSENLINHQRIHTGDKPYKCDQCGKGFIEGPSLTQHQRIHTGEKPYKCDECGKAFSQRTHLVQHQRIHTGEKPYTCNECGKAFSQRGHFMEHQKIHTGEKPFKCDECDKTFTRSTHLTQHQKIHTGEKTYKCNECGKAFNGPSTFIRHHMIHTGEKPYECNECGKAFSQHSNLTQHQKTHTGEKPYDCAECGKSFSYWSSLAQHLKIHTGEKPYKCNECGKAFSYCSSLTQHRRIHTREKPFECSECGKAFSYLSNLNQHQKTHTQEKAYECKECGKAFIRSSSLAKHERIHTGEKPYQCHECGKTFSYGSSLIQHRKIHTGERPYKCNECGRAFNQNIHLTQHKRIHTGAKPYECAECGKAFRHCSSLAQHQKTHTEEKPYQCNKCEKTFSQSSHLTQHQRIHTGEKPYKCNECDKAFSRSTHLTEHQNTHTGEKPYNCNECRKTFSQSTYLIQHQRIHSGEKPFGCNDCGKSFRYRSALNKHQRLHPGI
# UniProt Q99856: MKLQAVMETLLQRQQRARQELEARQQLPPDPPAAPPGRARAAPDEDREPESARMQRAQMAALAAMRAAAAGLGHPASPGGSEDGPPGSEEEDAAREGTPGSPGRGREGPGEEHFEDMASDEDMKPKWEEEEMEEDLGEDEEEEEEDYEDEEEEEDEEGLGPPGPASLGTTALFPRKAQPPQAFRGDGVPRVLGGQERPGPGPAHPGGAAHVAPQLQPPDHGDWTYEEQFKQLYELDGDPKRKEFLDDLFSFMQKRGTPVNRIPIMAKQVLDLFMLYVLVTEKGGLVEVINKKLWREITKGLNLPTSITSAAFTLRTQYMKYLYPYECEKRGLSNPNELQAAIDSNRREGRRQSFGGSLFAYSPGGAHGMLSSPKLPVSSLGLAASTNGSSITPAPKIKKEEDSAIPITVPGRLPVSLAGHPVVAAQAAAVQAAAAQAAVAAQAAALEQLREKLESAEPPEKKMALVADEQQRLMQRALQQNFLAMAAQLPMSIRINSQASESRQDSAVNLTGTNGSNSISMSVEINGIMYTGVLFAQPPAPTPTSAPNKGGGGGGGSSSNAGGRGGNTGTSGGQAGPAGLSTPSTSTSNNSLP
# UniProt Q9BRD0: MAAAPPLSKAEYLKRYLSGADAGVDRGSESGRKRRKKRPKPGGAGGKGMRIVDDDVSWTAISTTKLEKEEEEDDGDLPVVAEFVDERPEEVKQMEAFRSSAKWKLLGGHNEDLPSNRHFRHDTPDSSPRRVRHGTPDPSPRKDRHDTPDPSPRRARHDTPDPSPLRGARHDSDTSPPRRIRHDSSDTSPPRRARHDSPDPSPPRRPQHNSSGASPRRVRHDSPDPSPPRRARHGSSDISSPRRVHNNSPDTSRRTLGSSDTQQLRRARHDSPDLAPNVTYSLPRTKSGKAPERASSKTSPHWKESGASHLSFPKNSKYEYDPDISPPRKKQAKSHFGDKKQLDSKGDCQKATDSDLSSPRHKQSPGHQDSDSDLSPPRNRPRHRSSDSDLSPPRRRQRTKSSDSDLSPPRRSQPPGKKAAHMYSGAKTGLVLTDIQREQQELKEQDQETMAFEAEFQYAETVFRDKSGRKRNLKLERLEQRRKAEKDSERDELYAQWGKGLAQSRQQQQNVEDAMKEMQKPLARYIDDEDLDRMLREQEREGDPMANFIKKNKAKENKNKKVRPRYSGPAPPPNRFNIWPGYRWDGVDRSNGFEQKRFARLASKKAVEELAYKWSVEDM
# UniProt Q9BUI4: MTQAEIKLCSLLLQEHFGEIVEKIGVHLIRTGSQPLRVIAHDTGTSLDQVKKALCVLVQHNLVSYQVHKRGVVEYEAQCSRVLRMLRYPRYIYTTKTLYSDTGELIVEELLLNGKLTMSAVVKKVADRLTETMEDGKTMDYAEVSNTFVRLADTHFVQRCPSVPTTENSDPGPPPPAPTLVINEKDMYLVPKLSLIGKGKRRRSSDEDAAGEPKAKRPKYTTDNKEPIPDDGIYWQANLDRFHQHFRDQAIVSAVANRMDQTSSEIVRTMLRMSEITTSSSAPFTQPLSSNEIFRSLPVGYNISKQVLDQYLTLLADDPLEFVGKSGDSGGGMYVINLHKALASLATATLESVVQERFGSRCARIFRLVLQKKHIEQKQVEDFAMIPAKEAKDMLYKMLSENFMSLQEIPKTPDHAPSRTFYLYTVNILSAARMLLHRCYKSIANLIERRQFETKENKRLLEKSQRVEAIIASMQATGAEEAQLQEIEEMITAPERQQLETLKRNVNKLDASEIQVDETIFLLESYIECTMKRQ
# UniProt Q9BR76, whole entry: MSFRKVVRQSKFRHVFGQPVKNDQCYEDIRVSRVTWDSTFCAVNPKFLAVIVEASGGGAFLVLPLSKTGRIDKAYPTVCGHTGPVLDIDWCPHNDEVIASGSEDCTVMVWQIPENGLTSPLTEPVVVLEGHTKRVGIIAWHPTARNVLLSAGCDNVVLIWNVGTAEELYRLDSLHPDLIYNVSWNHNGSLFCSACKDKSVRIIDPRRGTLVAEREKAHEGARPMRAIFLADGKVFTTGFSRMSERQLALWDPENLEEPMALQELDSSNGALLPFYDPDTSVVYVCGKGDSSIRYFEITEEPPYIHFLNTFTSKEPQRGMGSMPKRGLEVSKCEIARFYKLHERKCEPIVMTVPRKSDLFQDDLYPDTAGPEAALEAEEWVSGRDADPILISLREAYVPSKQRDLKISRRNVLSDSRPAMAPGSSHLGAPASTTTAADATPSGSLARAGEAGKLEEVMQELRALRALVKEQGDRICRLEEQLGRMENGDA
# UniProt Q99623, whole entry: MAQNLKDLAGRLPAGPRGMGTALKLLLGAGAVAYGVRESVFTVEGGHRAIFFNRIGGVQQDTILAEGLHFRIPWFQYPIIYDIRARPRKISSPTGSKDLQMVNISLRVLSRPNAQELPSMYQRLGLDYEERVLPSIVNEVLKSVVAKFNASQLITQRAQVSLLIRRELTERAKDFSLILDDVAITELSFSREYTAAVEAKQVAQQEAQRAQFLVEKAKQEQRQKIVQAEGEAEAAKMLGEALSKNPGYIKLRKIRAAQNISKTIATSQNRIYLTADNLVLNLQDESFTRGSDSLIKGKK
# UniProt Q9BTK6, whole entry: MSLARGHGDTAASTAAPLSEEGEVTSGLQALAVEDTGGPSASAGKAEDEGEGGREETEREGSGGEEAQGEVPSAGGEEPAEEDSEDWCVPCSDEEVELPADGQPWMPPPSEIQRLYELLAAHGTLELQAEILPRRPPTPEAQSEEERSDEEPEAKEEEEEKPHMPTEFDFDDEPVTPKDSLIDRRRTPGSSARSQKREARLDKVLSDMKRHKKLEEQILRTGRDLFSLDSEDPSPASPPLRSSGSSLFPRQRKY
# Some of the results follow. Most values lie at the level of the controls, where differences are scatter.
# Compound: CN[C@@H]1C[C@H]2O[C@@](C)([C@@H]1OC)n1c3ccccc3c3c4c(c5c6ccccc6n2c5c31)C(=O)NC4 [staurosporine]
# Test: log2 fold change of tryptic peptide abundance, ligand vs vehicle (limited proteolysis) (log2 ratio); higher = more trypsin-susceptible (destabilized)
# Settings: ligand concentration: 20 uM; sample: K562 cleared lysate; digestion: 4 min, 22 C (HT-PELSA RT4min, Orbitrap Astral)
target,measurement,value
"UniProt Q9BRA0 (peptide sequence: AGAGPTMLLR, peptide start residue: 2)",log2 fold change,-0.152
"THUMPD2 (peptide sequence: TASTSFEASNHK, peptide start residue: 453) (UniProt Q9BTF0)",log2 fold change,-0.358
"DNAJC7 (peptide sequence: ALMHHPDR, peptide start residue: 405) (UniProt Q99615)",log2 fold change,0.243
"PAAF1 (peptide sequence: GGLGVSSSTDGTMK, peptide start residue: 104) (UniProt Q9BRP4)",log2 fold change,-0.311
"ZNF184 (peptide sequence: KTFSQSTYLIQHQR, peptide start residue: 705) (UniProt Q99676)",log2 fold change,-1.35
"ARID3A (peptide sequence: ARQELEAR, peptide start residue: 17) (UniProt Q99856)",log2 fold change,0.187
"BUD13 (peptide sequence: EMQKPLAR, peptide start residue: 517) (UniProt Q9BRD0)",log2 fold change,0.425
"POLR3C (peptide sequence: QQLETLKR, peptide start residue: 497) (UniProt Q9BUI4)",log2 fold change,0.427
"CORO1B (peptide sequence: VFTTGFSR, peptide start residue: 234) (UniProt Q9BR76)",log2 fold change,0.344
"UniProt Q99623 (peptide sequence: IVQAEGEAEAAK, peptide start residue: 225)",log2 fold change,0.534
"UniProt Q9BTK6 (peptide sequence: SSGSSLFPR, peptide start residue: 242)",log2 fold change,0.0833
